Assay results: PubChem BioAssay AID194 (DTP/NCI, 2004)
The list is a part of this screen's results and no random one: it is rich in T/C values a quarter to a half above the control, in often repeated tests (any T/C) and in doses without a T/C. Further doses and runs are listed elsewhere. T/C: endpoint of the treated group in % of that of the vehicle group. Some doses have a count of surviving animals in place of a T/C: the source holds a T/C of zero for them, seemingly a mark for toxic or unscored doses. Some survivor counts are full or nearly so, which does not show that the dose was tolerated: the source hardly ever lists a survival T/C far under the control, and the zero likely stands for such cases as well. Counts of survivors are from the toxicity check (mostly the fifth day) where no day follows; animals may have died later. Schedules are NCI's codes, taken here to give the interval after Q, in days (D) or hours (H), and the number of doses after X. Some entries were tested several times; the results are listed from low to high. For survival time, this PubChem deposit counts one and a half times the control or more as active, and values a quarter to a half above the control carry no call in these data; other NCI protocols may use other cut-offs. Some T/C values carry the count of animals alive at the toxicity check (mostly the fifth day); without a count, all were alive then.

System: BDF1 mice, B16 melanoma s.c., survival/tumor T/C
Assay: NCI In Vivo Anticancer Drug Screen. Data for tumor model B16 Melanoma (subcutaneous) in B6D2F1 (BDF1) mice
Conditions: T/C endpoint: median survival time, higher T/C = longer survival
Method: The antitumor activity of compounds was measured in mice bearing transplantable tumors. Survival or tumor size were measured and the results are expressed as the measurement made in the treated group (T) divided by the measurement made in the vehicle treated control group (C). The tumor model used in this assay is B16 Melanoma (subcutaneous) in B6D2F1 (BDF1) mice

[1] = dose: 128.0 mg/kg/injection, schedule: Q01DX009 (ip), vehicle: saline
[2] = dose: 256.0 mg/kg/injection, schedule: Q01DX009 (ip), vehicle: saline
[3] = dose: 200.0 mg/kg/injection, schedule: Q01DX009 (ip), vehicle: Klucel (hydroxypropylcellulose) (HPC)

CO[C@@]12[C@H](COC(N)=O)C3=C(C(=O)C(C)=C(N)C3=O)N1C[C@@H]1N[C@@H]12 was tested, and the T/C (dose: 1.0 mg/kg/injection, schedule: Q01DX009 (ip), vehicle: Klucel (hydroxypropylcellulose) (HPC)) was 136 % of control.

For N[C@@H](Cc1ccc(N(CCCl)CCCl)cc1)C(=O)O, the T/C (dose: 1.25 mg/kg/injection, schedule: Q01DX009 (ip), vehicle: Klucel (hydroxypropylcellulose) (HPC)) was 130 % of control, the T/C (dose: 2.5 mg/kg/injection, schedule: Q01DX009 (ip), vehicle: Klucel (hydroxypropylcellulose) (HPC)) was 140 % of control and the survivor count (dose: 5.0 mg/kg/injection, schedule: Q01DX009 (ip), vehicle: Klucel (hydroxypropylcellulose) (HPC)) was 10 of 10. For the same compound, the survivor count (dose: 8.0 mg/kg/injection, schedule: Q01DX009 (ip), vehicle: saline) was 10 of 10, the survivor count (dose: 10.0 mg/kg/injection, schedule: Q01DX009 (ip), vehicle: Klucel (hydroxypropylcellulose) (HPC)) was 10 of 10 and the survivor count (dose: 16.0 mg/kg/injection, schedule: Q01DX009 (ip), vehicle: saline) was 9 of 10. The survivor count (dose: 32.0 mg/kg/injection, schedule: Q01DX009 (ip), vehicle: saline) was 6 of 10, the survivor count (dose: 64.0 mg/kg/injection, schedule: Q01DX009 (ip), vehicle: saline) was 1 of 10 and the survivor count [1] was 0 of 10. The survivor count [2] was 0 of 10.

For CC(c1ccccc1)N1C(=O)CSC1=S (stereo not drawn), the T/C (dose: 50.0 mg/kg/injection, schedule: Q01DX009 (ip), vehicle: Klucel (hydroxypropylcellulose) (HPC)) was 135 % of control, the T/C (dose: 100.0 mg/kg/injection, schedule: Q01DX009 (ip), vehicle: Klucel (hydroxypropylcellulose) (HPC)) was 131 % of control and the T/C [3] was 135 % of control.

CCN(CC)CCCC(C)Nc1c2ccc(Cl)cc2nc2ccc(OC)cc12 (stereo not drawn) was tested, and the T/C (dose: 8.0 mg/kg/injection, schedule: Q01DX009 (ip), vehicle: saline with Tween-80) was 139 % of control, the survivor count (dose: 128.0 mg/kg/injection, schedule: Q01DX009 (ip), vehicle: saline with Tween-80) was 8 of 10 and the survivor count [1] was 9 of 10. For the same compound, the survivor count (dose: 256.0 mg/kg/injection, schedule: Q01DX009 (ip), vehicle: saline with Tween-80) was 0 of 10 and 2 of 10, the survivor count [2] was 1 of 10 and the survivor count (dose: 256.0 mg/kg/injection, schedule: Q01DX009 (ip), vehicle: suspension in saline) was 1 of 10.

In the case of Nc1ccc(N=Nc2ccccc2)c(N)c1, the survivor count [3] is reported as 10 of 10.

For COC1=C2C[C@@H](C)C[C@@H](OC)[C@@H](O)[C@H](C)/C=C(\C)[C@@H](OC(N)=O)[C@H](OC)/C=C\C=C(/C)C(=O)NC(=CC1=O)C2=O, the survivor count (dose: 2.0 mg/kg/injection, schedule: Q01DX005 (ip), vehicle: water) was 3 of 6 and the survivor count (dose: 4.0 mg/kg/injection, schedule: Q01DX005 (ip), vehicle: water) was 0 of 6.

For OCC1OC(n2cnc3c2NC=NC[C@H]3O)CC1O (stereo partly drawn), the T/C (dose: 0.4 mg/kg/injection, schedule: Q03HX024 (ip), vehicle: saline) was 130 % of control.

For OC(CCl)CN1CC[N+]2(CC1)CC[N+]1(CCN(CC(O)CCl)CC1)CC2 (stereo not drawn), the T/C (dose: 134.0 mg/kg/injection, schedule: Q01DX009 (ip), vehicle: saline) was 125 % of control and the T/C (dose: 200.0 mg/kg/injection, schedule: Q01DX007 (ip), vehicle: saline) was 127 % of control.

O=C1C=CC(=O)O1 (tested in a mixture with another compound) was tested, and the T/C (dose: 400.0 mg/kg/injection, schedule: Q01DX009 (ip), vehicle: other) was 133 % of control [7 of 10 alive].

With C[C@@H](CN1CC(=O)NC(=O)C1)N1CC(=O)NC(=O)C1 the T/C (dose: 8.0 mg/kg/injection, schedule: Q01DX009 (ip), vehicle: Klucel (hydroxypropylcellulose) (HPC)) was 131 % of control, the T/C (dose: 8.0 mg/kg/injection, schedule: Q01DX009 (ip), vehicle: water) was 131 % of control and the T/C (dose: 32.0 mg/kg/injection, schedule: Q01DX009 (ip), vehicle: water) was 139 % of control. The survivor count (dose: 50.0 mg/kg/injection, schedule: Q04DX003 (ip), vehicle: saline) was 10 of 10, the T/C (dose: 64.0 mg/kg/injection, schedule: Q01DX009 (ip), vehicle: water) was 142 % of control and the T/C (dose: 128.0 mg/kg/injection, schedule: Q01DX009 (ip), vehicle: water) was 126 % of control.
